The list is a part of this screen's results and no random one: it gathers tests that were run many times, whatever their T/C, doses with no T/C, and many T/C values between a quarter and a half above the control. Further doses and runs are listed elsewhere. T/C gives the treated animals as a percentage of the vehicle group. Some doses have a count of surviving animals in place of a T/C: the source holds a T/C of zero for them, seemingly a mark for toxic or unscored doses. Some doses without a T/C left all or most animals alive at the check, yet need not have been tolerated: survival well below the control is almost never listed, so the zero probably covers shortened survival too. Counts of survivors are from the toxicity check (mostly the fifth day) where no day follows; animals may have died later. Schedules are NCI's codes, taken here to give the interval after Q, in days (D) or hours (H), and the number of doses after X. Some entries hold several experiments; the values are given in rising order. For survival time, this PubChem deposit counts one and a half times the control or more as active, and values a quarter to a half above the control carry no call in these data; other NCI protocols may use other cut-offs. Some T/C values carry the count of animals alive at the toxicity check (mostly the fifth day); without a count, all were alive then.
Test system: P388 leukemia ip, CD2F1 mice, survival T/C
Test: NCI In Vivo Anticancer Drug Screen. Data for tumor model P388 Leukemia (intraperitoneal) in CD2F1 (CDF1) mice
Details: T/C endpoint: median survival time, higher T/C = longer survival
[1] = dose: 200.0 mg/kg/injection, schedule: Q01DX009 (ip), vehicle: saline with Tween-80
[2] = dose: 2.0 mg/kg/injection, schedule: Q01DX009 (ip), vehicle: Klucel (hydroxypropylcellulose) (HPC)
[3] = dose: 200.0 mg/kg/injection, schedule: Q04DX003 (ip), vehicle: saline with Tween-80
[4] = dose: 400.0 mg/kg/injection, schedule: Q04DX003 (ip), vehicle: saline with Tween-80

For `NC(=O)c1[nH]cnc1NN=NCCF`, the T/C (dose: 0.78 mg/kg/injection, schedule: Q01DX009 (ip), vehicle: distilled water + Tween-80) was 144 % of control, the T/C (dose: 1.56 mg/kg/injection, schedule: Q01DX009 (ip), vehicle: distilled water + Tween-80) was 126 % of control and the T/C (dose: 3.13 mg/kg/injection, schedule: Q01DX009 (ip), vehicle: distilled water + Tween-80) was 142 % of control. The survivor count (dose: 6.25 mg/kg/injection, schedule: Q01DX009 (ip), vehicle: distilled water + Tween-80) was 2 of 6, the survivor count (dose: 12.5 mg/kg/injection, schedule: Q01DX009 (ip), vehicle: distilled water + Tween-80) was 0 of 6 and the survivor count (dose: 25.0 mg/kg/injection, schedule: Q01DX009 (ip), vehicle: distilled water + Tween-80) was 0 of 6. The survivor count (dose: 50.0 mg/kg/injection, schedule: Q01DX009 (ip), vehicle: distilled water + Tween-80) was 0 of 6, the survivor count (dose: 100.0 mg/kg/injection, schedule: Q01DX009 (ip), vehicle: distilled water + Tween-80) was 0 of 6 and the survivor count (dose: 200.0 mg/kg/injection, schedule: Q01DX009 (ip), vehicle: distilled water + Tween-80) was 0 of 6.
For `CC(=O)/C=C\c1ccc(Cl)cc1`, the survivor count [1] was 6 of 6.
In the case of `O=C(NC(=S)Nc1cccc2c(O)cccc12)c1cccc(Br)c1`, the survivor count (dose: 60.0 mg/kg/injection, schedule: Q01DX005 (ip), vehicle: saline with Tween-80) is reported as 6 of 6 and the survivor count (dose: 120.0 mg/kg/injection, schedule: Q01DX005 (ip), vehicle: saline with Tween-80) is reported as 6 of 6.
`c1ccc(Sc2ncccn2)nc1` was tested, and the survivor count (dose: 200.0 mg/kg/injection, schedule: Q01DX009 (ip), vehicle: saline) was 0 of 6.
For `[N-]=[N+]=Nc1ccc2nc(N)nc(N)c2c1`, the survivor count (dose: 400.0 mg/kg/injection, schedule: Q01DX001 (ip), vehicle: Klucel (hydroxypropylcellulose) (HPC)) was 0 of 6.
`CC[CH2][Pb]([CH2]CC)([CH2]CC)[O]C(=O)C1CCCCC1` was tested, and the T/C (dose: 5.0 mg/kg/injection, schedule: Q01DX009 (ip), vehicle: saline with Tween-80) was 125 % of control and the T/C (dose: 10.0 mg/kg/injection, schedule: Q01DX009 (ip), vehicle: saline with Tween-80) was 134 % of control.
`COC1=C(C)C(=O)C2=C(C1=O)C1C3CC4=C(C(=O)C(OC)=C(C)C4=O)C(CNC(=O)C(C)=O)N3C(C#N)C(C2)N1C` (stereo not drawn) was tested, and the T/C (dose: 0.06 mg/kg/injection, schedule: Q01DX009 (ip), vehicle: Klucel (hydroxypropylcellulose) (HPC)) was 133 % of control, the T/C (dose: 0.12 mg/kg/injection, schedule: Q01DX009 (ip), vehicle: Klucel (hydroxypropylcellulose) (HPC)) was 132 and 135 % of control and the T/C (dose: 0.12 mg/kg/injection, schedule: Q01DX009 (ip), vehicle: saline) was 130 % of control. For the same molecule, the T/C (dose: 0.25 mg/kg/injection, schedule: Q01DX009 (ip), vehicle: Klucel (hydroxypropylcellulose) (HPC)) was 112 [4 of 6 alive], 125, 133, 137, 150 % of control, the T/C (dose: 0.25 mg/kg/injection, schedule: Q01DX009 (ip), vehicle: saline) was 130 % of control and the T/C (dose: 0.31 mg/kg/injection, schedule: Q01DX009 (ip), vehicle: Klucel (hydroxypropylcellulose) (HPC)) was 133 % of control. The T/C (dose: 0.5 mg/kg/injection, schedule: Q01DX009 (ip), vehicle: Klucel (hydroxypropylcellulose) (HPC)) was 134, 135, 139, 150, 171 % of control, the T/C (dose: 0.5 mg/kg/injection, schedule: Q01DX009 (ip), vehicle: saline) was 137 % of control and the T/C (dose: 1.0 mg/kg/injection, schedule: Q01DX009 (ip), vehicle: Klucel (hydroxypropylcellulose) (HPC)) was 142, 146 [5 of 6 alive], 166, 177, 180 % of control. The survivor count (dose: 1.25 mg/kg/injection, schedule: Q01DX009 (sc), vehicle: Klucel (hydroxypropylcellulose) (HPC)) was 6 of 6, the T/C [2] was 105 and 147 % of control and the survivor count [2] was 0 of 6 and 4 of 6. For the same molecule, the survivor count (dose: 2.25 mg/kg/injection, schedule: Q01DX009 (ip), vehicle: Klucel (hydroxypropylcellulose) (HPC)) was 3 of 6, the survivor count (dose: 2.5 mg/kg/injection, schedule: Q01DX009 (ip), vehicle: Klucel (hydroxypropylcellulose) (HPC)) was 5 of 6 and the survivor count (dose: 2.5 mg/kg/injection, schedule: Q01DX009 (sc), vehicle: Klucel (hydroxypropylcellulose) (HPC)) was 2 of 6 and 4 of 6. The survivor count (dose: 4.0 mg/kg/injection, schedule: Q01DX009 (ip), vehicle: Klucel (hydroxypropylcellulose) (HPC)) was 4 of 6, the survivor count (dose: 4.5 mg/kg/injection, schedule: Q01DX009 (ip), vehicle: Klucel (hydroxypropylcellulose) (HPC)) was 2 of 6 and the survivor count (dose: 5.0 mg/kg/injection, schedule: Q01DX009 (ip), vehicle: Klucel (hydroxypropylcellulose) (HPC)) was 2 of 6. For the same molecule, the survivor count (dose: 5.0 mg/kg/injection, schedule: Q01DX009 (sc), vehicle: Klucel (hydroxypropylcellulose) (HPC)) was 1 of 6, the survivor count (dose: 9.0 mg/kg/injection, schedule: Q01DX009 (ip), vehicle: Klucel (hydroxypropylcellulose) (HPC)) was 0 of 6 and the survivor count (dose: 10.0 mg/kg/injection, schedule: Q01DX009 (sc), vehicle: Klucel (hydroxypropylcellulose) (HPC)) was 0 of 6. The survivor count (dose: 18.0 mg/kg/injection, schedule: Q01DX009 (ip), vehicle: Klucel (hydroxypropylcellulose) (HPC)) was 0 of 6, the survivor count (dose: 20.0 mg/kg/injection, schedule: Q01DX009 (sc), vehicle: Klucel (hydroxypropylcellulose) (HPC)) was 0 of 6 and the survivor count (dose: 36.0 mg/kg/injection, schedule: Q01DX009 (ip), vehicle: Klucel (hydroxypropylcellulose) (HPC)) was 0 of 6.
`C=C(CN(C)C)C(=O)c1ccc(Oc2ccccc2)cc1` was tested, and the survivor count (dose: 7.5 mg/kg/injection, schedule: Q01DX005 (ip), vehicle: saline) was 1 of 6, the survivor count (dose: 15.0 mg/kg/injection, schedule: Q01DX005 (ip), vehicle: saline) was 0 of 6 and the survivor count (dose: 30.0 mg/kg/injection, schedule: Q01DX005 (ip), vehicle: saline) was 0 of 6. The survivor count (dose: 60.0 mg/kg/injection, schedule: Q01DX005 (ip), vehicle: saline) was 0 of 6, the survivor count (dose: 120.0 mg/kg/injection, schedule: Q01DX005 (ip), vehicle: saline) was 0 of 6 and the survivor count (dose: 240.0 mg/kg/injection, schedule: Q01DX005 (ip), vehicle: saline) was 0 of 6.
For `Cc1ncn2ncnc2c1C`, the survivor count [3] was 6 of 6 and the survivor count [4] was 0 of 6.
`CCC(C)C1NC(=O)C(NC(=O)c2c3nc4c(C(=O)NC5C(=O)NC(C(C)CC)C(=O)N6CCCC6C(=O)N(C)CC(=O)N(C)C(C(C)C)C(=O)OC5C)ccc(C)c4oc-3c(C)c(=O)c2Cl)C(C)OC(=O)C(C(C)C)N(C)C(=O)CN(C)C(=O)C2CCCN2C1=O` (stereo not drawn) was tested, and the T/C (dose: 1.6 mg/kg/injection, schedule: Q01DX009 (ip), vehicle: water) was 138 [5 of 6 alive] and 139 % of control.
With `[Cl][Pt][Cl].[NH-]C(CO)C(=O)O` (stereo not drawn) the T/C (dose: 6.25 mg/kg/injection, schedule: Q01DX005 (ip), vehicle: water) was 125 % of control, the T/C (dose: 12.5 mg/kg/injection, schedule: Q01DX005 (ip), vehicle: water) was 125 % of control and the T/C (dose: 25.0 mg/kg/injection, schedule: Q01DX005 (ip), vehicle: water) was 127 % of control. For the same molecule, the T/C (dose: 50.0 mg/kg/injection, schedule: Q01DX005 (ip), vehicle: water) was 142 % of control and the survivor count (dose: 100.0 mg/kg/injection, schedule: Q01DX005 (ip), vehicle: water) was 0 of 6 and 3 of 6.
`CC1(Cl)CC(C)(/C=C/Cl)C(Br)CC1Cl` (stereo not drawn) was tested, and the survivor count (dose: 332.0 mg/kg/injection, schedule: Q01DX005 (ip), vehicle: Klucel (hydroxypropylcellulose) (HPC)) was 6 of 6.
With `CC1(C)CCCC12C=NCC2` (stereo not drawn) the survivor count (dose: 100.0 mg/kg/injection, schedule: Q01DX009 (ip), vehicle: saline with Tween-80) was 0 of 6 and the survivor count [1] was 0 of 6.
For `CCCCN(CCNc1cc(OC)cc2cccnc12)C(C)CC` (stereo not drawn), the survivor count (dose: 100.0 mg/kg/injection, schedule: Q01DX005 (ip), vehicle: saline) was 4 of 5 and the survivor count (dose: 200.0 mg/kg/injection, schedule: Q01DX005 (ip), vehicle: saline) was 0 of 5.
`CCn1c2nc(=O)n(C)c(=O)c-2[n+]([O-])c2cc(C)ccc21` was tested, and the survivor count (dose: 100.0 mg/kg/injection, schedule: Q04DX003 (ip), vehicle: saline with Tween-80) was 6 of 6, the survivor count [3] was 3 of 6 and the survivor count [4] was 0 of 6.
In the case of `COc1ccc(/C(C#N)=C/c2ccccc2)cc1`, the survivor count (dose: 50.0 mg/kg/injection, schedule: Q01DX009 (ip), vehicle: suspension in saline) is reported as 6 of 6.
